Our source for the cell number change and AC50 values is PubChem BioAssay AID2685 (National Center for Advancing Translational Sciences (NCATS), 2010).

This test in a line: qHTS Assay for Lipid Storage Modulators in Drosophila S3 Cells.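 As to cell number change: cells counted by Cell Tracker Red CMTPX staining in the red channel.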 The settings on record: BODIPY lipid droplet fluorescence, 18-24 h; for cell number change: measured here: cell count max response, cells fed with added oleic acid. Summed up:
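Laser-scanning cytometry quantifies lipid droplet accumulation (500–530 nm total intensity; droplet/cell object ratio) in oleic acid-fed (400 uM added) Drosophila S3 cells treated with a concentration series. 20 uM Triacsin C defined 100% inhibition.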
In general terms: In qHTS, concentration-response curves come from the screen itself.

The mark [1] stands for this setting: measured here: lipid fluorescence (Fed channel) AC50, cells fed with added oleic acid.
[2] abbreviates: measured here: cell number channel AC50, cells fed with added oleic acid.

Some of the results follow. The main result of the screen is listed elsewhere. These columns were measured beside it and carry no call. The list favours compounds with an active or inconclusive main result. The note in brackets gives the kind of curve behind each potency; many fits are weak.

By AC50 is commonly meant the midpoint of the concentration-response curve, whichever way the signal moves. A higher AC50 goes with weaker potency. With `CN(C)c1ccc(CNC(=O)CCNS(=O)(=O)c2cc(Br)cnc2N)cc1`, the cell number change came to 23.8%. Moreover, under setting [1], the AC50 was 20.6 µM [rising, partial curve].

Take `COc1ccc(C(=O)c2ccc(OC)cc2O)c(O)c1`: the cell number change was -20.4%.

For the compound `O=C(CN1CCC(NC(=O)c2cccc(F)c2)CC1)Nc1ccc(Br)cc1`, the cell number change was -19.5%. In addition, the concentration at half-maximal activity (AC50) under setting [1] is 23.1 µM [falling, single point].

For the compound `CC1CCN(CCCNC(=O)CCCNC(=O)Cn2cnc3sc4c(c3c2=O)CCCC4)CC1`, the cell number change came out at 0.594%.

As for `CN(C)c1nc(N(C)C)n(C(=O)c2ccc(F)cc2)n1`, the cell number change was -42.7%. Moreover, the AC50 under setting [2] was 1.16 µM [falling, full curve, poor fit]. Besides, the AC50 under setting [1] is 0.92 µM [falling, full curve, poor fit].

Take `CCn1c(SCC(=O)N/N=C/C=C\c2ccco2)nc2ccccc21`: the cell number change was -20.5%. Besides, the AC50 under setting [1] was 29.1 µM [falling, single point].

`CCCCCC#CCN1CCN(C23CC4CC(CC(C4)C2)C3)CC1`: the cell number change is 9.4%. Besides, the AC50 under setting [2] is 6.51 µM [falling, single point]. In addition, the AC50 under setting [1] was 18.4 µM [rising, single point].

Take `CC1CC1C(=O)Nc1nc2ccc(S(C)(=O)=O)cc2s1` (centres undefined): the cell number change was found to be 5.46%. The AC50 under setting [1] is 0.146 µM [rising, full curve].

In the case of `CCN(CC)S(=O)(=O)c1ccc(C(=O)NCc2ccc3[nH]c4c(c3c2)CCCC4)cc1`, the cell number change is -8.93%. Moreover, the AC50 under setting [1] was 0.13 µM [rising, full curve, poor fit].

As to `CCN1CCN(CCC(=O)Nc2ccccc2)CC1`, the cell number change was determined as 15.8%. Besides, the AC50 under setting [1] is 0.146 µM [rising, full curve, poor fit].

Turning to `COc1ccc(-c2noc(CCCc3ccccc3)n2)cc1OC`, the cell number change is -34.1%. Further, the concentration at half-maximal activity (AC50) under setting [2] was 2.06 µM [falling, partial curve]. Besides, under setting [1], the AC50 is 7.31 µM [rising, partial curve].

As for `O=S(=O)(c1ccc(-c2ccon2)s1)N1CCN(c2ccccn2)CC1`, the cell number change was -39%. Also, the half-maximal activity concentration (AC50) under setting [2] was 3.66 µM [falling, full curve]. The AC50 under setting [1] is 6.51 µM [falling, single point].

Consider `CCOc1ccc(C(=O)OCc2nnc(-c3cccs3)o2)cc1OC`, for which the cell number change worked out at 36.9%. Also, the AC50 under setting [2] was 1.03 µM [rising, full curve, poor fit]. Further, the AC50 under setting [1] is 1.84 µM [rising, partial curve].

On to `COc1cc(/C=C(\NC(=O)c2ccccc2)C(=O)NCC(=O)O)c([N+](=O)[O-])cc1OC`, for which the AC50 under setting [2] is 0.82 µM [rising, single point].

Regarding `O=C(CCN1C(=O)c2ccccc2C1=O)C1=NN[C@@H]2C(=O)N(c3cccc(F)c3)C(=O)[C@H]12`, the cell number change is -45.3%. Further, the AC50 under setting [2] is 36.6 µM [falling, partial curve, poor fit].

Consider `Cc1ccc2c(c1)C1CN(C)CCC1N2S(=O)(=O)c1cc(C(F)(F)F)ccc1Cl` (centres undefined), for which the cell number change was -33%. In addition, the AC50 under setting [2] was 0.146 µM [falling, full curve, poor fit]. Also, under setting [1], the AC50 is 2.59 µM [rising, single point].

As for `CN1CCN(Cc2cccc(Oc3ccccc3)c2)CC1`, the cell number change is -3.05%. The half-maximal activity concentration (AC50) under setting [1] is 0.82 µM [falling, full curve, poor fit].

For `C=CCSC1=C(C#N)C(c2ccccc2OCC)C(C#N)C(=O)N1` (centres undefined), the cell number change was determined as 13.4%. Further, under setting [1], the concentration at half-maximal activity (AC50) is 0.164 µM [falling, full curve, poor fit].

Regarding `Cc1cccc(N2CCN(C(=O)CCNS(=O)(=O)c3ccc4c(c3)oc(=O)n4C)CC2)c1C`, the cell number change is -8.57%. Moreover, the AC50 under setting [1] is 29.1 µM [falling, single point].

Regarding `COc1cc(C(=O)OC(C)CN2CCCC2)cc(OC)c1OC` (centres undefined), the cell number change was -11.2%.

In the case of `O=C1c2cccnc2C(=O)N1Cc1ccc2c(c1)OCO2`, the cell number change is -12.3%. In addition, the AC50 under setting [1] was 0.00461 µM [rising, full curve, poor fit].

Take `Cc1ccc(C(C(=O)NC2CCCCC2)N(Cc2ccccc2)C(=O)Cc2c[nH]c3ccccc23)o1` (centres undefined): the cell number change was -26%. Also, the AC50 under setting [2] is 3.26 µM [rising, partial curve]. In addition, the AC50 under setting [1] was 3.66 µM [rising, single point].

As for `COc1ccc(CC(=O)N(C)Cc2ccc(C(C)(C)C)cc2)cc1S(=O)(=O)N1CCOCC1`, the cell number change amounted to 13.5%. Under setting [1], the AC50 was 29.1 µM [rising, single point].

With `COc1ccccc1/C=C(/C(=O)OCC(=O)Nc1cc(C)ccc1C)c1ccccc1`, the cell number change came to 9.85%. In addition, the AC50 under setting [1] was 29.1 µM [falling, single point].

Take `Cc1ccc(N2CCN(S(=O)(=O)c3ccc4c(c3)NC(=O)C(C)C(=O)N4)CC2C)cc1` (centres undefined): the cell number change stood at 18.4%. The half-maximal activity concentration (AC50) under setting [1] was 29.1 µM [falling, single point].

On to `CC(C)c1ccc(C2CC(c3ccc(Br)cc3)=NN2C(N)=S)cc1` (centres undefined), for which the cell number change turned out to be 4.17%. Further, the AC50 under setting [1] is 2.31 µM [rising, single point].

Take `O=C(NC1CCCCC1)[C@H](O)[C@@H](O)C(=O)NC1CCCCC1`: the cell number change was -22%.

For `O=C(Nc1cccc(Cl)c1)c1ccc(NC2=NC3CS(=O)(=O)CC3S2)cc1` (centres undefined), the cell number change is -11.2%. The AC50 under setting [1] is 0.411 µM [falling, full curve, poor fit].

On to `Cc1c(C(=O)O)sc(S(=O)(=O)N2CCN(C(=O)CCc3ccccc3)CC2)c1C(=O)O`, for which the cell number change was -98.7%. For the same compound, the AC50 under setting [2] is 9.2 µM [falling, partial curve]. Under setting [1], the AC50 is 0.58 µM [falling, single point].

Consider `CCCCNC(=O)CSc1nc2ccc(C)cc2[nH]1`, for which the AC50 under setting [2] was 0.00461 µM [rising, full curve, poor fit].

`Cc1ccc(S(=O)(=O)C2(C(=O)NCc3ccc4c(c3)OCO4)CC2)cc1`: the cell number change was 66.9%. Besides, the AC50 under setting [2] was 8.2 µM [rising, partial curve]. In addition, the AC50 under setting [1] was 6.51 µM [rising, single point].

With `COc1ccc(Cl)cc1NC(=O)CN(C)C(=O)c1ccc(COc2ccccc2)cc1`, the cell number change was found to be 39.3%. The AC50 under setting [2] was 0.13 µM [rising, full curve, poor fit]. The AC50 under setting [1] is 16.4 µM [rising, partial curve, poor fit].

As for `COc1ccc(Nc2cnn(-c3nc4ccccc4s3)c(=O)c2Cl)cc1`, the cell number change was -24.7%. For the same compound, the AC50 under setting [2] was 0.146 µM [rising, full curve, poor fit]. The AC50 under setting [1] was 29.1 µM [falling, single point].

`COc1ccccc1CNC(=O)CNC(=O)N1CC(=O)Nc2ccccc21`: the cell number change is 23.5%. Besides, the AC50 under setting [1] was 18.4 µM [falling, single point].

In the case of `Cc1nc2nc(SCC(=O)N3CCOCC3)nn2c(C)c1Cc1ccccc1`, the cell number change is 13.7%. Further, under setting [1], the AC50 was 0.00517 µM [falling, full curve, poor fit].

As for `Cc1ccc(NS(=O)(=O)c2c(C)[nH]c(C)c2C(=O)N2CCCCC2)cc1C`, the cell number change was -16.8%. Also, the AC50 under setting [1] is 6.51 µM [falling, partial curve].

Turning to `Cc1ccc(S(=O)(=O)Nc2cccc3cccnc23)cc1`, the cell number change was -13.7%. Also, the AC50 under setting [1] was 4.11 µM [falling, full curve].

For `CC(C)(C)Cc1nnc(NS(=O)(=O)c2ccc([N+](=O)[O-])cc2)s1`, the cell number change was -12.2%. In addition, under setting [1], the AC50 is 6.51 µM [rising, single point].

For the compound `O=C(Cc1ccc([N+](=O)[O-])cc1)Nc1ccon1`, the cell number change worked out at 13.4%. Moreover, under setting [2], the AC50 was 1.3 µM [rising, partial curve]. The AC50 under setting [1] is 0.58 µM [falling, single point].

As to `O=C(O)CCN1C(=O)/C(=C\c2ccc(OCc3ccccc3)c(OCc3ccccc3)c2)SC1=S`, the cell number change is -31.4%. The AC50 under setting [2] is 7.31 µM [falling, partial curve, poor fit].

For `CC1(C)CC(=O)/C(=C(\O)CCCN2C(=O)c3ccccc3C2=O)C(=NCCO)C1`, the cell number change came to 5.02%.

With `CN(c1cccc(NC(=O)CN(c2ccc(Cl)c(Cl)c2)S(=O)(=O)c2ccccc2)c1)S(C)(=O)=O`, the cell number change is -19.2%. Also, the AC50 under setting [1] is 18.4 µM [falling, single point].

For the compound `CN(Cc1ncc[nH]1)C(=O)CC1C(=O)NCCN1Cc1c(F)cccc1Cl` (centres undefined), the cell number change stood at 19.8%. The AC50 under setting [1] was 1.3 µM [rising, full curve, poor fit].

Take `Cn1c(=O)c2[nH]c(N3CCN(c4ccccn4)CC3)nc2n(C)c1=O`: the cell number change is -0.678%. Under setting [1], the AC50 is 6.51 µM [falling, single point].

Regarding `Cc1ccccc1Nc1nc(-c2sc(NC(=O)c3ccc([N+](=O)[O-])cc3)nc2C)cs1`, the cell number change was -29.4%. Under setting [1], the AC50 was 16.4 µM [falling, partial curve].

As for `COc1ccc(Cl)cc1NC(=O)C(=O)N/N=C/c1cc(C)n(-c2ccc(C)cc2)c1C`, the cell number change is 12.9%.

On to `O=C(NCC1CCCO1)c1ccc(Br)c(S(=O)(=O)N2CCOCC2)c1` (centres undefined), for which the cell number change was 4.04%.

`CN(Cc1ccccc1)C(=O)COC(=O)c1cc(Cl)nc(Cl)c1`: the cell number change was -5.28%. The AC50 under setting [1] was 0.146 µM [falling, full curve, poor fit].

Take `CC1(c2ccc(OC(F)F)cc2)NC(=O)N(CC(=O)N2c3ccccc3NC(=O)C2(C)C)C1=O` (centres undefined): the cell number change was -5.69%.

On to `COc1ccc(-c2nnc(SCc3cccc(C#N)c3)o2)cc1`, for which the cell number change came to 14.7%. Moreover, the AC50 under setting [1] is 18.4 µM [rising, single point].

For `O=C(COc1ccc(F)cc1)NN1C(=O)CSC1=S`, the cell number change is -62.8%. Under setting [2], the concentration at half-maximal activity (AC50) is 1.64 µM [falling, partial curve]. Besides, the concentration at half-maximal activity (AC50) under setting [1] was 23.1 µM [falling, single point].

Regarding `COc1ccc(NC(=O)CN(C)CC(=O)NCCc2ccc(F)cc2)cc1`, the cell number change is -2.5%.

Take `CCOc1ccc(C(=O)NCC(=O)NCC(c2ccc(OC)cc2)N2CCOCC2)cc1OCC` (centres undefined): the cell number change came to 18.5%.

Consider `CCOC(=O)CCCNC(=O)COC(=O)/C=C/c1ccc2c(c1)OCO2`, for which the cell number change was -2.22%.

As to `COc1ccc(OC)c(N=C2SCCCN2C(=O)c2ccc(N3C(=O)CCC3=O)cc2)c1`, the cell number change is -10.4%. Besides, the AC50 under setting [2] was 3.26 µM [falling, single point]. Under setting [1], the AC50 was 0.058 µM [falling, full curve, poor fit].

Regarding `CCC(=O)Nc1ccc(S(=O)(=O)Nc2cc(C)on2)cc1`, the cell number change is -38.2%. Also, under setting [2], the AC50 was 29.1 µM [falling, single point]. For the same compound, the AC50 under setting [1] was 6.51 µM [falling, partial curve].
